Measurements reported in article PMC3979721, “Biochemical Properties of Ectoine Hydroxylases from Extremophiles and Their Wider Taxonomic Distribution among Microorganisms” (PLoS ONE, 2014).
These are yes or no findings as the source states them, for the method shown. Some entries that bind do so weakly or less than the wild type. Values belong to the binder of their own block, whether it stands above or below them.

How the values were obtained:
[1] = molecular target: Halomonas elongata EctD protein (ectoine hydroxylase) (Halomonas elongata) (UniProt E1VA04); assay: SEC; data not shown; gel filtration as for the S. alaskensis protein (HiLoad 16/600 Superdex 200 pg, 20 mM TES-buffer containing 150 NaCl); both purified
[2] = molecular target: Virgibacillus salexigens EctD protein (ectoine hydroxylase) (Virgibacillus salexigens) (UniProt Q2TDY4); assay: as above

binding [1]: binds
B1: Halomonas elongata EctD protein (ectoine hydroxylase) (enzyme, UniProt E1VA04 1-332)
chain: MSVQTSSNRPLPQANLHIATETPEADSRIRSAPRPGQDPYPTRLSEPLDLPWLNRREPVVKGEEADGPLSAAQLDTFERQGFIFEPDFLKGEELEALRHELNALLARDDFRGRDFAITEPQGNEIRSLFAVHYLSRVFSRLANDERLMGRARQILGGEPYVHQSRINYKPGFEGKGFNWHSDFETWHAEDGMPAMHAVSASIVLTDNHTFNGPLMLVPGSHRVFVPCLGETPEDHHRQSLKTQEFGVPSRQALRELIDRHGIEAPTGAAGGLLLFDCNTLHGSNANMSPDPRSNAFFVYNRRDNRCVEPYAASKRRPRFLAHEPDEAWSPDG

binding [2]: binds
B2: Virgibacillus salexigens EctD protein (ectoine hydroxylase) (enzyme, UniProt Q2TDY4 1-300)
chain: MEDLYPSRQNNQPKILKRKDPVIYTDRSKDNQAPITKEQLDSYEKNGFLQIKNFFSEDEVIDMQKAIFELQDSIKDVASDKVIREPESNDIRSIFHVHQDDNYFQDVANDKRILDIVRHLLGSDVYVHQSRINYKPGFKGKEFDWHSDFETWHVEDGMPRMRAISVSIALSDNYSFNGPLMLIPGSHNYFVSCVGETPDNNYKESLKKQKLGVPDEESLRELTRIGGGISVPTGKAGSVTLFESNTMHGSTSNITPYPRNNLFMVYNSVKNRLVEPFSGGEKRPEYIAVREKQPVYSAVN
